Data as given in patent US20170299579A1, “VITELLINE MEMBRANE AS A MODEL OF THE BLOOD BRAIN BARRIER” (priority 2016, published 2017).
At least one compound was matched to its structure with a doubt left.

Experiment: Permeability of outer and inner membranes of decalcified quail eggs (agent reaching the albumen)
Conditions: Acetaminophen 2.6 × 10^−1 M

CCN(CC)CCOC(=O)c1ccc(N)cc1Cl [2-Chloroprocaine]
Permeability (outer and inner membrane) (agent in PBS, 2-Chloroprocaine 4 × 10^−2 M, incubation time 12 hours): +
Permeability (outer and inner membrane) (agent in methanol, 2-Chloroprocaine 4 × 10−2 M, incubation time 2 & 12 hours): +
